Data source: PubChem BioAssay AID652243 (Drosophila RNAi Screening Center, 2013)
The screen tested about 24,000 reagents; below is an unselected part of those that have a named target and a result. In the full data, 246 (1%) got an active call. 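Plates not normalised; calls are printed but the firefly/Renilla ratio behind them is not deposited; fold cut for lowering reported inconsistently.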 The raw values are shown without normalisation. A plus sign joins genes that one reagent is predicted to hit. Not given: the amount of reagent.

Screen: 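Fly genes required for human androgen receptor driven transcription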 (primary screen)
Cell system: Drosophila S2R+ cells
Knock-down reagent: long dsRNA against Drosophila genes
Timing: 72 h (48 h, then 24 h hormone)
Conditions: synthetic androgen R1881 at 10 nM for 24 h
Measured: 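Firefly light from an androgen-responsive reporter and Renilla control light per well, raw and unnormalised, for each of two replicates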
Scale: firefly reporter light: higher = more light from androgen-responsive reporter; Renilla control light: higher = more constitutive control signal (cell number, transfection)
Call rule: 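Hit when the log firefly-to-Renilla ratio dropped or increased by a fixed fold versus the mean of GFP or LacZ controls across duplicate plates; lowering cut given as 1.5 and as 3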
Meaning of the calls: active = hit: reporter lowered or raised; inactive = no hit

Gene	amplicon	firefly reporter light, replicate 1	firefly reporter light, replicate 2	Renilla control light, replicate 1	Renilla control light, replicate 2	Call
adp	DRSC06916	4.40e5	4.34e5	4.98e5	3.88e5	inactive
CG1647	DRSC15134	50984	47499	4.51e5	3.79e5	inactive
Gr59d	DRSC22553	7.90e5	7.26e5	1.19e6	1.03e6	inactive
CG15358	DRSC00388	1.30e5	1.14e5	9.49e5	1.07e6	inactive
CG12224	DRSC14480	85875	1.42e5	2.03e6	1.94e6	inactive
Slu7	DRSC14729	1.89e5	1.95e5	2.94e6	3.54e6	inactive
Slu7	DRSC23582	8.51e5	9.14e5	9.59e5	9.16e5	inactive
Rm62	DRSC12365	27434	30042	2.67e5	2.58e5	inactive
Rm62	DRSC25109	3.54e5	2.66e5	9.33e5	3.09e5	inactive
CG9259	DRSC03174	1.69e5	1.37e5	1.66e6	1.09e6	inactive
CG14346	DRSC00376	1.29e5	1.66e5	8.53e5	1.04e6	inactive
CG14346	DRSC27555	2.09e5	1.98e5	3.58e5	5.02e5	inactive
Gmppb	DRSC12169	53155	49623	4.73e5	2.88e5	inactive

Records listed so far whose target name begins with C or c:
Gene	amplicon	firefly reporter light, replicate 1	firefly reporter light, replicate 2	Renilla control light, replicate 1	Renilla control light, replicate 2	Call
CG1647	DRSC15134	50984	47499	4.51e5	3.79e5	inactive
CG15358	DRSC00388	1.30e5	1.14e5	9.49e5	1.07e6	inactive
CG12224	DRSC14480	85875	1.42e5	2.03e6	1.94e6	inactive
CG9259	DRSC03174	1.69e5	1.37e5	1.66e6	1.09e6	inactive
CG14346	DRSC00376	1.29e5	1.66e5	8.53e5	1.04e6	inactive
CG14346	DRSC27555	2.09e5	1.98e5	3.58e5	5.02e5	inactive

Next records:
Gene	amplicon	firefly reporter light, replicate 1	firefly reporter light, replicate 2	Renilla control light, replicate 1	Renilla control light, replicate 2	Call
Eig71Ea	DRSC11148	2.84e5	2.22e5	2.96e6	2.67e6	inactive
SMC2	DRSC07544	1.29e6	8.77e5	2.00e6	1.37e6	inactive
SMC2	DRSC29763	5.25e5	2.82e5	1.42e6	1.22e6	inactive
CG9395	DRSC03218	2.16e5	1.91e5	1.24e6	1.54e6	inactive
CG9395	DRSC26576	3.26e5	2.41e5	6.94e5	6.12e5	inactive
Ets21C	DRSC00751	1.29e5	1.30e5	8.24e5	9.73e5	inactive
mdy	DRSC01559	2.37e5	2.11e5	3.58e5	5.22e5	inactive
mdy	DRSC02250	9.23e5	6.38e5	2.29e6	1.97e6	inactive
CG45263	DRSC14360	77068	87987	2.14e6	1.89e6	inactive
CG45263	DRSC14361	58003	61895	1.49e6	1.33e6	inactive
CG45263	DRSC14363	69410	84816	2.24e6	1.84e6	inactive
CG45263	DRSC24974	1.08e6	1.11e6	8.13e5	1.11e6	inactive
Prp8	DRSC07293	6.81e5	7.40e5	1.60e6	1.56e6	inactive
Sys1	DRSC14372	1.46e5	99739	1.94e6	1.39e6	inactive
CG31915	DRSC03000	99310	1.17e5	8.77e5	9.49e5	inactive
lncRNA:CR30009	DRSC22952	3.78e5	1.11e6	1.35e6	1.73e6	inactive
lncRNA:CR30009	DRSC29817	4.45e5	3.89e5	1.22e6	1.24e6	inactive
CG9018	DRSC08618	51088	38516	5.97e5	7.87e5	inactive
CG13557	DRSC04195	3.34e5	4.21e5	2.06e6	2.44e6	inactive
GlnRS	DRSC14140	62375	52774	4.19e5	4.49e5	inactive
asRNA:CR43469 + Balat	DRSC06852	1.25e6	1.20e6	1.96e6	1.90e6	inactive
TTLL6A	DRSC06618	1.56e5	1.52e5	2.30e6	2.19e6	inactive
TTLL6A	DRSC24494	6.93e5	7.67e5	8.82e5	8.17e5	inactive
asp	DRSC16903	52225	75933	4.01e5	4.24e5	inactive
asp	DRSC36592					inactive
asp	DRSC36593					inactive
Or94a	DRSC16772	2.42e5	1.52e5	1.99e6	1.94e6	inactive
